These are yes or no findings as the source states them, for the method shown. Some entries that bind do so weakly or less than the wild type.
Experiments:
[1] = target: T1, CAPRIN-1 protein on the cell membrane surface of cancer cells (UniProt Q14444); assay: flow cytometry
T1 sequence (looked up): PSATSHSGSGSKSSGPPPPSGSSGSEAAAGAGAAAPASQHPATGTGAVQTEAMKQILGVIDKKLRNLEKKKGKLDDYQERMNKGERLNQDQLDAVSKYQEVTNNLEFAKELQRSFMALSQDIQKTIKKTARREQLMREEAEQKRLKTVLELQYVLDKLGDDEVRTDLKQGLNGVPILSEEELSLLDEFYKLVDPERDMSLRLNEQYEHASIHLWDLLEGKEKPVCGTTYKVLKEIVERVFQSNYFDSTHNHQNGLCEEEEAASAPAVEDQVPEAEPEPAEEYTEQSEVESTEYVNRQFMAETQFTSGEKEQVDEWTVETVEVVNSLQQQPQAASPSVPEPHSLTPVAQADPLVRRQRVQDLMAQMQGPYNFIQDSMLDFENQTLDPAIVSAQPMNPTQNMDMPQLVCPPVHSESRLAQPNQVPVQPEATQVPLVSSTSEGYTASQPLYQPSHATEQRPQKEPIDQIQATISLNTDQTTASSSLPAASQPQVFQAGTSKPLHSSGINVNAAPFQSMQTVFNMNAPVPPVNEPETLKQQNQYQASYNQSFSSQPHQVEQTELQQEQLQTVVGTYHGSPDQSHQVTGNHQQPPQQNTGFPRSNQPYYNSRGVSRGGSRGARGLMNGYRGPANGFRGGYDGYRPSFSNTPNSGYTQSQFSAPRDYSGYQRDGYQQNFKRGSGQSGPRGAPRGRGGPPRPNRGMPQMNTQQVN

[2] = target: T2, CAPRIN-1 protein (UniProt Q14444); assay: ELISA
T2 sequence (looked up): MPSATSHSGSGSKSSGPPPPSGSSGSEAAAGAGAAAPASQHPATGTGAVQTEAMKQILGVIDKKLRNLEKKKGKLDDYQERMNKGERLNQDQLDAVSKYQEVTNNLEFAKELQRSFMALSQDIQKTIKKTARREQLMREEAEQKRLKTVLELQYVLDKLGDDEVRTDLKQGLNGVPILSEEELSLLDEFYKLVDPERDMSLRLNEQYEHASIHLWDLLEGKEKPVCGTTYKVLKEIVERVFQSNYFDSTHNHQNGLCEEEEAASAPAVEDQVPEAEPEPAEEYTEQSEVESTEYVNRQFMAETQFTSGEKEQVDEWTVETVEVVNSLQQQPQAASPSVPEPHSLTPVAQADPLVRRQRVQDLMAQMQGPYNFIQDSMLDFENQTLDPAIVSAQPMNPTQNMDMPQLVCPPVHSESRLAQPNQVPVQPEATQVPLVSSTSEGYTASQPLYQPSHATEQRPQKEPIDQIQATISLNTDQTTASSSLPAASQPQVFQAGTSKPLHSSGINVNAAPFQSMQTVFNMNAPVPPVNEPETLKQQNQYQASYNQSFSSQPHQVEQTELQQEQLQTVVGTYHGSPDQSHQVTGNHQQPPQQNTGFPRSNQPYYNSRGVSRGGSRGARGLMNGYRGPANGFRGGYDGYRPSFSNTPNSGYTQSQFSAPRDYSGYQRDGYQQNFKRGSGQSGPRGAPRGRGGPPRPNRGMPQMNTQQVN

[3] = target: T3, CAPRIN-1 on the cell membrane surface of mouse cancer cells (mouse) (UniProt Q60865); assay: 4T1 cells
T3 sequence (looked up): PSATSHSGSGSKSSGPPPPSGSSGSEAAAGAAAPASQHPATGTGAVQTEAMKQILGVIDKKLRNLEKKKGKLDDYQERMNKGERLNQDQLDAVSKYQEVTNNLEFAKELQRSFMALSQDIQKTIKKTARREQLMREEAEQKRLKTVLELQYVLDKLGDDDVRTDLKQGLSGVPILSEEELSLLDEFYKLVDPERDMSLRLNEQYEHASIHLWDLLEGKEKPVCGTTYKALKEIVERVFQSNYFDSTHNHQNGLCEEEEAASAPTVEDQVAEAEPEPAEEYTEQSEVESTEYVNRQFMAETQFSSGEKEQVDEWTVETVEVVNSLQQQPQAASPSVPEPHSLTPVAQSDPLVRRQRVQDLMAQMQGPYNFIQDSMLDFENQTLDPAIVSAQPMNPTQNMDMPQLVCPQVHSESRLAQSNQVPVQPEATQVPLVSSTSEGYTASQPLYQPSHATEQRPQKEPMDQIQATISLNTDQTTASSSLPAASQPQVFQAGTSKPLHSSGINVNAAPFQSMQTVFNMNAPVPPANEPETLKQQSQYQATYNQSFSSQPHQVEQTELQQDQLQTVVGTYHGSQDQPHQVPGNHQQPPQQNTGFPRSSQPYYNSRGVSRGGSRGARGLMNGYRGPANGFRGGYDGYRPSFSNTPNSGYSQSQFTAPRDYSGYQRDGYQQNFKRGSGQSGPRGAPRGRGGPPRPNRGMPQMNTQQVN

Row | Binder | binding [1] | binding [2] | binding [3]
1 | Conjugate 32 (antibody, V domains shown) VH: QSLEESGGDLVKPGASLTLTCTASGFSFSGSYYMSWVRQAPGKGLEWIAYIYIGDGVTAYANWAKGRFTISKASSTTVTLQMTSLTAADTATYFCARGNKLWGPGTLVTVSS VL: DVVMTQTPASVEAAVGGTVTIKCQASQSISSYLAWYQQKPGQPPKRLIYDASNLDSGVPSRFKGSGSGTDFTITISDLECADAATYYCQCTAVSSATIYGNAFGGGTEVVVK | binds | binds | binds
2 | Conjugate 36 (antibody, V domains shown) VH: QSLEESGGDLVKPGASLTLTCTASGFSFSGSYYMSWVRQAPGKGLEWIAYIYIGDGVTAYANWAKGRFTISKASSTTVTLQMTSLTAADTATYFCARGNKLWGPGTLVTVSS VL: DVVMTQTPASVEAAVGGTVTIKCQASQSISSYLAWYQQKPGQPPKRLIYDASNLDSGVPSRFKGSGSGTDFTITISDLECADAATYYCQCTAVSSATIYGNAFGGGTEVVVK | binds | binds | binds
3 | Conjugate 214 (antibody, V domains shown) VH: GAELVRSGASVKMSCKASGYSFTDYNMYWVKQTPGQGLEWIGYIYPGNGGTNYNQKFKGKATLTADTSSSTAYMQISSLTSEDSAVYFCARDYDDGGYAMDYWGQGTTVTVSS VL: DIQMTQSPASLSASVGETVTITCRASGNIHNYLTWYQQKQGKSPQLLVYNAKTLADGVPSRFSGSGSGTQYSLKINRLQPEDFGSYYCQHFWNIPWTFGGGTKLNSR | binds | binds | 
4 | Conjugate 215 (antibody, V domains shown) VH: DAELVKPGASVKISCKASGYTFTDHSIHWVQQKPEQGLEWIGYISPGNGNIKYNEKFKGKATLTADKSSSTAYMQLNSLTSEDSAVYFCKRSLGRGGPYYFDYWGQGTTVTVSS VL: DIVLTQAAPSLPVTPGESVSISCRSSKSLLHSNGNTYLYWFLQRPGQSPQLLIYRMSNLASGVPDRFSGSGSGTAFTLRISRVEAEDVGVYYCMQHREYPVTFGSGPN | binds | binds | 
5 | Conjugate 220 (antibody, V domains shown) VH: EVQLHQFGAELVKPGASVKISCKASGYTFTDYNMDWVKQSHGKSLEWIGDINPNYDSTSYNQKFKGKATLTVDKSSSTAYMELRSLTSEDTAVYYCARSRSYDYEGFAYWGQGTLVTVSA VL: DIQMTQSPASLSASVGETVTITCRASGNIHNYLAWYQQKQGKSPQLLVYNAKTLADGVPSRFSGSGSGTQYSLKINSLQPEDFGSYYCQHFWSTLTFGAGTKLELKR | binds | binds | 
6 | Conjugate 231 (antibody, V domains shown) VH: GPDLVKPGASVKISCKASGYSFTAYYMHWVKQSHGKSLEWIGRVNPNNGGTTYNQKFKGKAILTVDKSSSTAYMELRSLTFEDSAVYYCARRIYYGYFDYWGQGTTVTVSS VL: AFFAVSLGQRATISCKASQSVDYDGDSYMNWYQQKPGQPPKLLIYVASNLESGVPARFSGSGSGTDFTLNIHPVEEEDAATYYCQQSNEDPYTFGGGTKLEIKQ | binds | binds | 
7 | Conjugate 237 (antibody, V domains shown) VH: EVQLVESGGGLVQPGGSLRLSCAASGFSLSSHSLGWVRQAPGKGLEWIGDIRSGGSAYYANWAKGRFTISRDNSKNTLYLQMNSLRAEDTAVYYCTRTNGPSDLTNRLDLWGQGTLVTVSS VL: QVLTQSPSSLSASVGDRVTINCQASQSLYNNENLAWFQQKPGKVPKRLIYGASTLASGVSSRFSGSGSGTEFTLTISSLQCEDFAIYYCLGEFSCGSADCFAFGGGTKVEIK | binds | binds | 
8 | Conjugate 238 (antibody, V domains shown) VH: EVQLVESGGGLVQPGGSLRLSCAASGFSLSSHSLGWVRQAPGKGLEWIGDIRSGGSAYYANWAKGRFTISRDNSKNTLYLQMNSLRAEDTAVYFCTRTNGPSDLTNRLDLWGQGTLVTVSS VL: QVLTQSPSSLSASVGDRVTINCQASQSLYNNENLAWFQQKPGKVPKRLIYGASTLASGVSSRFSGSGSGTEFTLTISSLQCEDFAIYYCLGEFSCGSADCFAFGGGTKVEIK | binds | binds | 
9 | Conjugate 239 (antibody, V domains shown) VH: EVQLVESGGGLVQPGGSLRLSCAASGFSLSSHSLGWVRQAPGKGLEWIGDIRSGGSAYYANWAKGRFTISRDNSKNTLYLQMNSLRAEDTAVYYCTRTNGPSDLTNRLDLWGQGTLVTVSS VL: EQVLTQSPSSLSASVGDRVTINCQASQSLYNNENLAWFQQKPGKVPKRLIYGASTLASGVSSRFSGSGSGTEFTLTISNLQPEDFAIYYCLGEFSCGSADCFAFGGGTKVEIK | binds | binds | 
10 | Conjugate 240 (antibody, V domains shown) VH: EVQLVESGGGLVQPGGSLRLSCAASGFSLSSHSLGWVRQAPGKGLEWIGDIRSGGSAYYANWAKGRFTISRDNSKNTLYLQMNSLRAEDTAVYFCTRTNGPSDLTNRLDLWGQGTLVTVSS VL: EIVLTQSPSSLSASVGDRVTINCQASQSLYNNENLAWFQQKPGKVPKRLIYGASTLASGVSSRFSGSGSGTEFTLTISNLQPEDFATYYCLGEFSCGSADCFAFGGGTKVEIK | binds | binds | 
11 | Conjugate 241 (antibody, V domains shown) VH: EVQLVESGGGLVQPGGSLRLSCAASGFSLSSHSLGWVRQAPGKGLEWIGDIRSGGSAYYANWAKGRFTISRDNSKNTLYLQMNSLRAEDTAVYYCTRTNGPSDLTNRLDLWGQGTLVTVSS VL: EIVLTQSPSSLSASVGDRVTINCQASQSLYNNENLAWFQQKPGKVPKRLIYGASTLASGVSSRFSGSGSGTEFTLTISNLQPEDFATYYCLGEFSCGSADCFAFGGGTKVEIK | binds | binds | 
12 | Conjugate 242 (antibody, V domains shown) VH: EVQLVESGGGLVQPGGSLRLSCAASGFSLSSHSLGWVRQAPGKGLEWIGDIRSGGSAYYANWAKGRFTISRDNSKNTLYLQMNSLRAEDTAVYFCTRTNGPSDLTNRLDLWGQGTLVTVSS VL: EQVLTQSPSSLSASVGDRVTINCQASQSLYNNENLAWFQQKPGKVPKRLIYGASTLASGVSSRFSGSGSGTEFTLTISNLQPEDFAIYYCLGEFSCGSADCFAFGGGTKVEIK | binds | binds | 
13 | Conjugate 38 (antibody, human IgG1, V domains shown) VH: EQSLVESGGGLVQPGGSLRLSCAASGFSLSSHSLGWVRQAPGKGLEWIGDIRSGGSAYYANWAKGRFTISRDNSKNTLYLQMNSLRAEDTAVYYCTRTNGPSDLTNRLDLWGQGTLVTVSS VL: QVLTQSPSSLSASVGDRVTINCQASQSLYNNENLAWFQQKPGKVPKRLIYGASTLASGVSSRFSGSGSGTEFTLTISSLQCEDFAIYYCLGEFSCGSADCFAFGGGTKVEIK | binds | binds | 
14 | Conjugate 42 (antibody, human IgG1, V domains shown) VH: EQSLVESGGGLVQPGGSLRLSCAASGFSLSSHSLGWVRQAPGKGLEWIGDIRSGGSAYYANWAKGRFTISRDNSKNTLYLQMNSLRAEDTAVYYCTRTNGPSDLTNRLDLWGQGTLVTVSS VL: QVLTQSPSSLSASVGDRVTINCQASQSLYNNENLAWFQQKPGKVPKRLIYGASTLASGVSSRFSGSGSGTEFTLTISSLQCEDFAIYYCLGEFSCGSADCFAFGGGTKVEIK | binds | binds | 

— patent publication US20250249092A1 (TORAY INDUSTRIES, published 2025)
